Data on one compound can be found in patent publication US4599414A, “Theophylline derivatives” (Eisai Co., Ltd., priority 1979, dated 1986).

Like-named read-outs stand apart in the source and are kept apart here.

The test has as its system contractile response to histamine, terminal ileum. Briefly: Antihistaminic action: inhibition of contractile response to histamine (10^-6 M) in isolated terminal ileum. Type of test: cell-based, guinea-pig. Conditions: for inhibition at 1 µM / inhibition at 0.1 µM: Cavia porcellus; for inhibition at 1 µM: antagonist 10^-6 M. As to the method:
The terminal ileum was removed from a starved guinea-pig and set up in an organ bath containing Tyrode solution maintained at 26° C. Contractile tension was recorded isometrically under a tension of 1.5 g with a strain-gauge transducer. After obtaining control response to histamine (10^-6 M), antagonists were added to the bath and allowed to remain in contact with the tissue for 3 minutes. Contractile response to histamine in the presence of the antagonists was recorded and the inhibitory rate was calculated according to the following equation: [formula] The tissue was then washed at 10 min intervals with fresh Tyrode solution. Contractile response to histamine was tested after each wash in order to study the duration of action of the antagonists.

Turning to `C(=C\c1ccccc1)/CN1CCN(C(c2ccccc2)c2ccccc2)CC1` [(2), Cinnarizine, reference compound], the inhibition at 1 µM is, setting by setting: (0.05 h, 3 min contact, before washing, read-out: Inhibitory rate before washing) 74%; (after 1st washing, read-out: Inhibitory rate after 1st washing) 81%; (after 2nd washing, read-out: Inhibitory rate after 2nd washing) 71%; (after 3rd washing, read-out: Inhibitory rate after 3rd washing) 65%. The inhibition at 0.1 µM runs as follows: (0.05 h, antagonist 10^-7 M, 3 min contact, before washing, read-out: Inhibitory rate before washing) 2%; (antagonist 10^-7 M, after 1st washing, read-out: Inhibitory rate after 1st washing) 52%; (antagonist 10^-7 M, after 2nd washing, read-out: Inhibitory rate after 2nd washing) 37%; (antagonist 10^-7 M, after 3rd washing, read-out: Inhibitory rate after 3rd washing) 26%. Under “antagonist 10^-7 M, after 4th washing”, the “Inhibitory rate after 4th washing” value is 19%.
